In all, about 33,000 sequences were measured (“E-score (-0.5 to 0.5)”: median about -0.016, highest 2% from about 0.3 on). Some of the results follow.
Biological target: T1, Yer184c (UniProt P39961)
T1 sequence: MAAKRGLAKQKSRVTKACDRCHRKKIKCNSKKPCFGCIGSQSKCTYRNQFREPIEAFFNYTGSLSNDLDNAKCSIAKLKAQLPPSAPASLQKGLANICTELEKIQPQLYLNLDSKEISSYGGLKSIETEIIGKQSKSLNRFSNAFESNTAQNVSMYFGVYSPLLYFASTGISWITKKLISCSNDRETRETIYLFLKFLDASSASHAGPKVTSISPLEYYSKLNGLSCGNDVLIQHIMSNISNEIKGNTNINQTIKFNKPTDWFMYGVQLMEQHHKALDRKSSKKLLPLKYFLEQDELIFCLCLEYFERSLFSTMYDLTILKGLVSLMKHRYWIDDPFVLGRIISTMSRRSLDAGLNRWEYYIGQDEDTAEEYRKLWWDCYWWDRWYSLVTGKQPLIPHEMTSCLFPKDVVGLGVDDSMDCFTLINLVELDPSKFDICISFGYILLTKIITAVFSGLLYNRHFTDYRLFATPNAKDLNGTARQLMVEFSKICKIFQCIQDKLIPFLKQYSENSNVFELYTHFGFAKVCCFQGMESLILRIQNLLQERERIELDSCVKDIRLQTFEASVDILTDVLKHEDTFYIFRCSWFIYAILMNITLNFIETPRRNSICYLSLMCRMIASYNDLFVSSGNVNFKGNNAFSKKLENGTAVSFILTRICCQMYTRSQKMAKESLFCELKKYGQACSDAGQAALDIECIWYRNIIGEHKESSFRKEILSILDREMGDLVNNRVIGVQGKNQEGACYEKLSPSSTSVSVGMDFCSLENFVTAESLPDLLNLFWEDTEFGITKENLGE
Assay: PBM E-score (8-mer binding enrichment) (E-score (-0.5 to 0.5)); higher = stronger / more preferred TF binding
Conditions: protein concentration: 100 nM; construct: GST-full length
Procedure, shortened: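 Detection of bound protein used fluorescent anti-GST, with scans normalised by masliner. The proteins were GST-tagged yeast transcription factors applied at about 100-200 nM to universal all-10-mer Agilent arrays made double-stranded by primer extension. Each ungapped eight-base word, pooled with its reverse complement, was scored with an E-score from the Universal PBM Analysis Suite.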

Row | Sequence | PBM E-score
1 | GTGCCCTA | -0.341
2 | GTCGCTTA | 0.157
3 | CTAGCGAC | -0.137
4 | AATCCCAG | -0.111
5 | GATTGCCC | -0.19
6 | CGTTTGTC | 0.0106
7 | CTAACCAC | -0.0155
8 | ACTGCTTC | -0.21
9 | AGGACTAG | 0.00731
10 | GATGCACC | -0.0505
11 | CGGGGGCC | -0.133
12 | CACTCTGC | -0.125
13 | AGACTGAT | -0.0815
14 | GGTCGGTA | 0.0252
15 | CGTCAAGC | -0.0178
16 | GTCCGTGA | 0.0464
17 | AATGTTCA | -0.0281
18 | CAAGAAGG | -0.217
19 | GTGGACCA | -0.102
20 | GCGGGGAA | -0.0187
21 | CTGCCAAG | -0.151
22 | AGAAAAAG | 0.127

Row | Sequence | PBM E-score
23 | GAAGGCCC | -0.183
24 | CCTTCCCG | -0.0498
25 | AGTCAGGA | -0.12
26 | TCGAGAAA | 0.0245
27 | AGGGAAGC | -0.264
28 | CCGAATGC | 0.259
29 | TCCTAGCA | -0.0909
30 | TTCAAGAA | 0.312
31 | GGTTGTAA | -0.0276
32 | CGGGCCGA | 0.308
33 | CTACGTGC | -0.236
34 | ATTTTATG | 0.217
35 | CCAGTACG | 0.0123
36 | AGACATAA | -0.12
37 | GCAGAAGA | 0.0161
38 | GTCTTTAA | 0.0778
39 | CCGTATAG | -0.021
40 | ACATAGCA | -0.0537
41 | ACTGCTCG | 0.072
42 | CTATTTAA | 0.0903
43 | TAGGAATA | 0.0114
44 | ATCGCGGG | -0.153

Some values from the entries so far:
PBM E-score with GTGGACCA reads -0.102
PBM E-score with GAAGGCCC reads -0.183
PBM E-score with GATGCACC reads -0.0505
PBM E-score with GTGCCCTA reads -0.341
PBM E-score with TCCTAGCA reads -0.0909
PBM E-score with AGTCAGGA reads -0.12

(cont.)

Row | Sequence | PBM E-score
45 | AGTCTGAG | -0.14
46 | AGTTAAGG | -0.00816
47 | AGGATAAA | 0.0326
48 | AATTCGCG | 0.111
49 | ACCAACGC | -0.125
50 | AGGAAACA | 0.165
51 | CTGATGGC | -0.052
52 | ATTGTTAG | 0.0956
53 | GTATTCTA | 0.143
54 | AATTTGTA | 0.126
55 | TAGCTCGA | 0.00856
56 | CCTTCTGC | -0.276
57 | GACGACCA | -0.0396
58 | AATCAGCA | 0.143
59 | ACAACATA | 0.0797
60 | CCATCACG | -0.043
61 | ACACGACC | -0.00384
62 | GTAGTGCA | -0.0021
63 | AGACTTGG | -0.231
64 | CTGCTCAC | -0.188
65 | GAACTGTA | 0.205
66 | CTGTCAAC | -0.0849

Row | Sequence | PBM E-score
67 | GGCATCAA | -0.0951
68 | CAAATAGG | -0.157
69 | ACCTGCGA | -0.18
70 | GCCGGTAA | 0.346
71 | CCGGCCTC | 0.132
72 | CATCTCGA | -0.202
73 | ATAGTTCC | 0.17
74 | AACTAACT | 0.0519
75 | GCAGAACC | -0.19
76 | CAAATTCG | 0.102
77 | TCAAAAGA | 0.102
78 | CAAAACCA | 0.105
79 | GAATCTTA | 0.179
80 | ATAAGTGC | -0.193
81 | GATTCACA | -0.0882
82 | AAAACCTG | -0.236
83 | GTCTCAAA | -0.0364
84 | GTGGCTGA | -0.0655
85 | GTAGGGAA | -0.15
86 | GTCTTACA | -0.156
87 | ACAGCTTC | -0.0965
88 | CGGGATGA | 0.158

Row | Sequence | PBM E-score
89 | CAGTTTAG | -0.134
90 | CAAACCTC | -0.259
91 | CCCTCGTC | -0.193
92 | CGTCCTGA | -0.197
93 | CTCAAAAC | 0.126
94 | CTCTAAGA | 0.106
95 | GACTCAAA | -0.00661
96 | AACGCTCA | -0.229
97 | CCTGCCCC | -0.308
98 | CCACTTAG | -0.135
99 | CTATTATC | 0.208
100 | CAAACACC | 0.0299
101 | ATTCCGGC | 0.393
102 | CAATCTGC | -0.14
103 | GATGAGTA | 0.0629
104 | CAGCGTCC | -0.0361
105 | AATTATGC | 0.129
106 | GCCTCAGC | -0.0649
107 | CATCTATA | 0.0535
108 | CCGCCCGG | 0.299
109 | GAGCAGTA | 0.0566

From the supplement of paper PMC3334620
